From doi:10.1101/2024.07.02.601518 come the findings set out here.

By UniProt entry, the sequences of proteins in these tests, tags left out.
UniProt Q16665: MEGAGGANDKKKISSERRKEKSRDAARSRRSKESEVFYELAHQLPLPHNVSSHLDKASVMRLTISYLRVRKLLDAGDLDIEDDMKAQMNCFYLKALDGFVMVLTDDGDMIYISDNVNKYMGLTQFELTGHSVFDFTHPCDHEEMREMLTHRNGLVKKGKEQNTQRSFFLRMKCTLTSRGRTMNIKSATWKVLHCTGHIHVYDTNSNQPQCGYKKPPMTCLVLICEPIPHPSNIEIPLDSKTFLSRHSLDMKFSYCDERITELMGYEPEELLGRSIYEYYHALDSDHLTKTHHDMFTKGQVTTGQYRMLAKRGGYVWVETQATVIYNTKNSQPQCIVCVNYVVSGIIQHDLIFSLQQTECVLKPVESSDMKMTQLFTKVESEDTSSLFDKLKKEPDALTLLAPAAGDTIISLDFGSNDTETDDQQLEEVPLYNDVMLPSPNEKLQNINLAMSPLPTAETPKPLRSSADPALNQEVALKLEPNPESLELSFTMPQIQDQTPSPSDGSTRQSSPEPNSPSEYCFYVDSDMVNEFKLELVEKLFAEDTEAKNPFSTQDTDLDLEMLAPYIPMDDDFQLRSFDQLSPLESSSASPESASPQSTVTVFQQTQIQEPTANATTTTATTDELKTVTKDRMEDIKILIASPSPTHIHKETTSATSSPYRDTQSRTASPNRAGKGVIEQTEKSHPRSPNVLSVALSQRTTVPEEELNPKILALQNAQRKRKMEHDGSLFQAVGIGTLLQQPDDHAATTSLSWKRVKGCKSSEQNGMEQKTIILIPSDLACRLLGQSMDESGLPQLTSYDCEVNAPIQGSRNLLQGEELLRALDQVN
UniProt Q61221: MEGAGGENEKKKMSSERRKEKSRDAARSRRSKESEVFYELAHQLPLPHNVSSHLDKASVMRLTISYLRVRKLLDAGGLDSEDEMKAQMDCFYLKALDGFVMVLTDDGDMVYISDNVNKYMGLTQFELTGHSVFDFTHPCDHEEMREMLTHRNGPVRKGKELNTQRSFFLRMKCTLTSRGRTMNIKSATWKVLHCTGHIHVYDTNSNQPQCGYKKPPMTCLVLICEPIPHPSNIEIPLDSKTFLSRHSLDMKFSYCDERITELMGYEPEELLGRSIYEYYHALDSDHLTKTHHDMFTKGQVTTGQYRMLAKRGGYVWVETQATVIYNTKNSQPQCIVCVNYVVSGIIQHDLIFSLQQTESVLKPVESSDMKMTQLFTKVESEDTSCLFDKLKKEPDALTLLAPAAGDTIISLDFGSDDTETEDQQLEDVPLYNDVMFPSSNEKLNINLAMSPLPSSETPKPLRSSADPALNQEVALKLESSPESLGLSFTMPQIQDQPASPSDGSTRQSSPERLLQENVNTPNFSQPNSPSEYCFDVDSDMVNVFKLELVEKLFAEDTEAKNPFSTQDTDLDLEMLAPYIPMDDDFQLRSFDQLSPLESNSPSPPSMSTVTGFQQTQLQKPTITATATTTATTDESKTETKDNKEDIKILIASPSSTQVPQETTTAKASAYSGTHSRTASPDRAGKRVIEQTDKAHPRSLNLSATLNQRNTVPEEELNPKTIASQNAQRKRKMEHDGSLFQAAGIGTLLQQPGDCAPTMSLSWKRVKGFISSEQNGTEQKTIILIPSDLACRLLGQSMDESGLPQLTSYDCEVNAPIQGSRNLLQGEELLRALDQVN
UniProt Q80TA9: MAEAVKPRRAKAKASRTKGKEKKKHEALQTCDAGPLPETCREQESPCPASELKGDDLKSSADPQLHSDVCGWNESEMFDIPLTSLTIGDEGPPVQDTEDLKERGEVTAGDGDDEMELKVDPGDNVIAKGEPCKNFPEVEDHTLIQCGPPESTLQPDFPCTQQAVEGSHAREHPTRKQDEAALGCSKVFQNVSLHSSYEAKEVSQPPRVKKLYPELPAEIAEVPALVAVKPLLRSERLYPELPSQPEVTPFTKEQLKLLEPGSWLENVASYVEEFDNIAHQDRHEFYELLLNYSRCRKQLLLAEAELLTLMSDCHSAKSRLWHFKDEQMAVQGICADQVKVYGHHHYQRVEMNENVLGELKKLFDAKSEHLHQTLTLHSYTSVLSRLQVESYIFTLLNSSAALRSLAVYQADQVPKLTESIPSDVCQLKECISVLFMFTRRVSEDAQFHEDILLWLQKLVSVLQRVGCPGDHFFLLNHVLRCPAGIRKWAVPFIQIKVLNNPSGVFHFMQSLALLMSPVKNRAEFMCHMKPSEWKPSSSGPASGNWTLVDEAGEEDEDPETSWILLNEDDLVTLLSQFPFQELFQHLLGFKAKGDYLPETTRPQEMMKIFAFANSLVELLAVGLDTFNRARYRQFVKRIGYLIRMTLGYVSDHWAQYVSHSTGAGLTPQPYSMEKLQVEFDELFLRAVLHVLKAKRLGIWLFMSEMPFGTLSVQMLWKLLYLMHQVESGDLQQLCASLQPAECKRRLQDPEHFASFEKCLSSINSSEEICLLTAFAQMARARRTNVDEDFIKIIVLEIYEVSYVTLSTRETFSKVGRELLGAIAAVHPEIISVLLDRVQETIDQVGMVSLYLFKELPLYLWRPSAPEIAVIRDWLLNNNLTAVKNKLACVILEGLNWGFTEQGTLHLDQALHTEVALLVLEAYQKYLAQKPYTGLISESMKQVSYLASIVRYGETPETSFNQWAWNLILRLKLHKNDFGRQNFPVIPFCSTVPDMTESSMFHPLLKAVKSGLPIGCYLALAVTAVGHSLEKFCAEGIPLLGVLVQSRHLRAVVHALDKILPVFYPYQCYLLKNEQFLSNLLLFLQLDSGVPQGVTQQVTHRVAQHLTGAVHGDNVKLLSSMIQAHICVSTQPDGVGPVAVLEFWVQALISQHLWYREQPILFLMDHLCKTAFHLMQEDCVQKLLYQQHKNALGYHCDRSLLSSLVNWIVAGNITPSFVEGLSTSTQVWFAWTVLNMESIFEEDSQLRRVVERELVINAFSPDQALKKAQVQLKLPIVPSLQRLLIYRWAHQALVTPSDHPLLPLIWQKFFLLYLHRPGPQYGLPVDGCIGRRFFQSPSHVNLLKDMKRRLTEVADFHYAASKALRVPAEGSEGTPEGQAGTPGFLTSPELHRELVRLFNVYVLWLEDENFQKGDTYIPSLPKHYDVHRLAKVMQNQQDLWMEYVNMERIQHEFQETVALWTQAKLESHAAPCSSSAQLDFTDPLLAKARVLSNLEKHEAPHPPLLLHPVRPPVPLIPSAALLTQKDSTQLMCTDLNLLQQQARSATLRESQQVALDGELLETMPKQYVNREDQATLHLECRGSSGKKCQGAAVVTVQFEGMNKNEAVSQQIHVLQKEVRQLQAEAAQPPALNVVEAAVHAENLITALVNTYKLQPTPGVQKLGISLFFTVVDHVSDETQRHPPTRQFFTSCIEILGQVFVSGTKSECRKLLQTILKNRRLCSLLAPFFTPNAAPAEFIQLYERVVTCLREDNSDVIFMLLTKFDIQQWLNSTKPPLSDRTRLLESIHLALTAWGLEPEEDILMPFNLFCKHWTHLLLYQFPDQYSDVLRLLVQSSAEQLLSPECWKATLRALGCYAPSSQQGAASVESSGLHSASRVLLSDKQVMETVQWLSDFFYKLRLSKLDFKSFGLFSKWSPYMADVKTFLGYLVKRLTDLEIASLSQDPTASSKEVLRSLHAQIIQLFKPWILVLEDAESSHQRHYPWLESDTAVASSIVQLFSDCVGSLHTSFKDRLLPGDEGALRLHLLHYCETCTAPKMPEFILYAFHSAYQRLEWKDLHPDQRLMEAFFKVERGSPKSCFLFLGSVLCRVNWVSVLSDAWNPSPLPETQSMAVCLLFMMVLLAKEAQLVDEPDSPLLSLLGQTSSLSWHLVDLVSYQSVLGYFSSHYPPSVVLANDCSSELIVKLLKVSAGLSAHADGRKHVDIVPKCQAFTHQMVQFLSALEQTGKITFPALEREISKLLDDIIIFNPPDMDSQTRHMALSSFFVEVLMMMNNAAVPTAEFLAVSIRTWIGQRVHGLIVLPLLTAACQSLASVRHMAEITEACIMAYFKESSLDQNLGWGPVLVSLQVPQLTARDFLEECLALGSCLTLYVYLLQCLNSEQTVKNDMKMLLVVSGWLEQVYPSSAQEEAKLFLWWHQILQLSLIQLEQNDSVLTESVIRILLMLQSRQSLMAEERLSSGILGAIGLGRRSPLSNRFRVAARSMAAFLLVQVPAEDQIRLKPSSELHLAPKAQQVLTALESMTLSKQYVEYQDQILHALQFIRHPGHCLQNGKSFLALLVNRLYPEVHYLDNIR
UniProt Q61464: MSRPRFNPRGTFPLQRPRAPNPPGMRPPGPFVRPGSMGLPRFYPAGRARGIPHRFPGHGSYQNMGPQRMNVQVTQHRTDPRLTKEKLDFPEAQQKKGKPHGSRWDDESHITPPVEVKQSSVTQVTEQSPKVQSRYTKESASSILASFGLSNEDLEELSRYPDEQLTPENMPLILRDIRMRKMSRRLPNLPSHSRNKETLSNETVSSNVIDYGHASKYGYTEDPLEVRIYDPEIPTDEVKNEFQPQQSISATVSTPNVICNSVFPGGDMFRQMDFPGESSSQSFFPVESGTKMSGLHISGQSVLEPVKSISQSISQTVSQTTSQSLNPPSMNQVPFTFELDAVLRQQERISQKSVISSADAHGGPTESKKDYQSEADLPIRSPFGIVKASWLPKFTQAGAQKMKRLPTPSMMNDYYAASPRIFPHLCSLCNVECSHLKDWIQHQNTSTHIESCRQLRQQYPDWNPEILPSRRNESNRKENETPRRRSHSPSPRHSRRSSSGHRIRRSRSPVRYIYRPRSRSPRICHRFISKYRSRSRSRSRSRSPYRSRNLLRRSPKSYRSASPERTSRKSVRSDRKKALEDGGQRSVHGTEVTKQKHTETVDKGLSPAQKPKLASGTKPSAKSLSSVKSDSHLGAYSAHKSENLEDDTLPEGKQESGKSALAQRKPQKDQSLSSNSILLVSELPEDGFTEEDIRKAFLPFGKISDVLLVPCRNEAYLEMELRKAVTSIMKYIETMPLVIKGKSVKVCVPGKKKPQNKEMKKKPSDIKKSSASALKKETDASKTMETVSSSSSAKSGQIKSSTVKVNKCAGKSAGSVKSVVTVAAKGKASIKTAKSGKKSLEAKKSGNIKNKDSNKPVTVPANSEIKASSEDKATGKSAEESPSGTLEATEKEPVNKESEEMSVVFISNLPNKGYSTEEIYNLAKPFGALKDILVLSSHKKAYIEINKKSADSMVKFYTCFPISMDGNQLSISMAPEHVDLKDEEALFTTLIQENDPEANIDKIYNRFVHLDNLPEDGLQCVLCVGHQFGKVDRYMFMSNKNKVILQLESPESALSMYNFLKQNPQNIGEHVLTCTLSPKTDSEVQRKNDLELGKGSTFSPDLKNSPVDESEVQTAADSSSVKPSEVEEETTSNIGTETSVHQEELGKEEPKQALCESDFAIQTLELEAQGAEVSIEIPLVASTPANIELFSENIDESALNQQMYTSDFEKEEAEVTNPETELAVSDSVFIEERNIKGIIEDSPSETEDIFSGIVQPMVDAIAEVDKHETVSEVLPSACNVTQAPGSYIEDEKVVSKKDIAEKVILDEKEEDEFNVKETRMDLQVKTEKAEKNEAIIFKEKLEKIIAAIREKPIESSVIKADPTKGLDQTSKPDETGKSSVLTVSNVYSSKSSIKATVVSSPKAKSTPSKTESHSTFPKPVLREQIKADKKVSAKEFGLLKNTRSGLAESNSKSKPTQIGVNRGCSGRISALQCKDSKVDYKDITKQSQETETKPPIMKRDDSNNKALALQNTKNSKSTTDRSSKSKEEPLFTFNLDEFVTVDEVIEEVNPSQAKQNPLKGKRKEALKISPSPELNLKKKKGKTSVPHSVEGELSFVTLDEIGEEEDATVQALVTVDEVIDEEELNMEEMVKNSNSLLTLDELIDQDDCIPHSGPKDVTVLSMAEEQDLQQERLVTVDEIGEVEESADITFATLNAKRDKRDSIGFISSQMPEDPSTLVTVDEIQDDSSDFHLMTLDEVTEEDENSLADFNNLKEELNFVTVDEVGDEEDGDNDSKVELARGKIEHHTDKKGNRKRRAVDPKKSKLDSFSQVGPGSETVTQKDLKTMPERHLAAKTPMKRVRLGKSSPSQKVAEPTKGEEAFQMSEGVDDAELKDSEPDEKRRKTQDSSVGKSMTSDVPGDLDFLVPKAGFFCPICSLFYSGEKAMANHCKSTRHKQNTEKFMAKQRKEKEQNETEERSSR

These are yes or no findings as the source states them, for the method shown. In cells and extracts the contact can be indirect. A yes stands for co-enrichment or nearness to the bait. Other partners may have been found.

B1: GOLGA3, human (protein, UniProt Q08378 1-1498)
chain: MDGASAEQDGLQEDRSHSGPSSLPEAPLKPPGPLVPPDQQDKVQCAEVNRASTEGESPDGPGQGGLCQNGPTPPFPDPPSSLDPTTSPVGPDASPGVAGFHDNLRKSQGTSAEGSVRKEALQSLRLSLPMQETQLCSTDSPLPLEKEEQVRLQARKWLEEQLKQYRVKRQQERSSQPATKTRLFSTLDPELMLNPENLPRASTLAMTKEYSFLRTSVPRGPKVGSLGLPAHPREKKTSKSSKIRSLADYRTEDSNAGNSGGNVPAPDSTKGSLKQNRSSAASVVSEISLSPDTDDRLENTSLAGDSVSEVDGNDSDSSSYSSASTRGTYGILSKTVGTQDTPYMVNGQEIPADTLGQFPSIKDVLQAAAAEHQDQGQEVNGEVRSRRDSICSSVSLESSAAETQEEMLQVLKEKMRLEGQLEALSLEASQALKEKAELQAQLAALSTKLQAQVECSHSSQQRQDSLSSEVDTLKQSCWDLERAMTDLQNMLEAKNASLASSNNDLQVAEEQYQRLMAKVEDMQRSMLSKDNTVHDLRQQMTALQSQLQQVQLERTTLTSKLKASQAEISSLQSVRQWYQQQLALAQEARVRLQGEMAHIQVGQMTQAGLLEHLKLENVSLSQQLTETQHRSMKEKGRIAAQLQGIEADMLDQEAAFMQIQEAKTMVEEDLQRRLEEFEGERERLQRMADSAASLEQQLEQVKLTLLQRDQQLEALQQEHLDLMKQLTLTQEALQSREQSLDALQTHYDELQARLGELQGEAASREDTICLLQNEKIILEAALQAAKSGKEELDRGARRLEEGTEETSETLEKLREELAIKSGQVEHLQQETAALKKQMQKIKEQFLQQKVMVEAYRRDATSKDQLISELKATRKRLDSELKELRQELMQVHGEKRTAEAELSRLHREVAQVRQHMADLEGHLQSAQKERDEMETHLQSLQFDKEQMVAVTEANEALKKQIEELQQEARKAITEQKQKMRRLGSDLTSAQKEMKTKHKAYENAVGILSRRLQEALAAKEAADAELGQLRAQGGSSDSSLALHERIQALEAELQAVSHSKTLLEKELQEVIALTSQELEESREKVLELEDELQESRGFRKKIKRLEESNKKLALELEHEKGKLTGLGQSNAALREHNSILETALAKREADLVQLNLQVQAVLQRKEEEDRQMKHLVQALQASLEKEKEKVNSLKEQVAAAKVEAGHNRRHFKAASLELSEVKKELQAKEHLVQKLQAEADDLQIREGKHSQEIAQFQAELAEARAQLQLLQKQLDEQLSKQPVGNQEMENLKWEVDQKEREIQSLKQQLDLTEQQGRKELEGLQQLLQNVKSELEMAQEDLSMTQKDKFMLQAKVSELKNNMKTLLQQNQQLKLDLRRGAAKTRKEPKGEASSSNPATPIKIPDCPVPASLLEELLRPPPAVSKEPLKNLNSCLQQLKQEMDSLQRQMEEHALTVHESLSSWTPLEPATASPVPPGGHAGPRGDPQRHSQSRASKEGPGE
B2: Golga3, mouse (protein, UniProt P55937 1-1487)
chain: MDGASAKQDGLWESKSSSDVSSCPEASLETVGSLARLPDQQDTAQDASVEVNRGFKEEGSPDRSSQVAICQNGQIPDLQLSLDPTTSPVGPDASTGVDGFHDNLRNSQGTSAEGSVRKEALQSLRLSLPMQETQLCSTASSLPLEKEEQVRLQARKRLEEQLMQYRVKRHRERSSQPATKMKLFSTLDPELMLNPENLPRASTVAVTKEYSFLRTSVPRGPKVGSLGLLAHSKEKKNSKSSKIRSLADYRTEDPSDSGGLGSTADAVGSSLKQSRSSTSVVSEVSPSSETDNRVESASMTGDSVSEADGNESDSSSHSSLSARGACGVLGNVGMPGTAYMVDGQEISAEALGQFPSIKDVLQAAAAQHQDQNQEANGEVRSRRDSICSSVSMESSLAEPQDELLQILKDKRRLEGQVEALSLEASQALQEKAELQAQLAALSTRLQAQVEHSHSSQQKQDSLSSEVDTLKQSCWDLGRAMTDLQSMLEAKNASLASSNNDLQVAEEQYQRLMAKVEDMQRNILSKDNTVHDLRQQMTALQSQLQQVQLERTTLTSKLQASQAEITSLQHARQWYQQQLTLAQEARVRLQGEMAHIQVGQMTQAGLLEHLKLENVSLSHQLTETQHRSIKEKERIAVQLQSIEADMLDQEAAFVQIREAKTMVEEDLQRRLEEFEGEREQLQKVADAAASLEQQLEQVKLTLFQRDQQLAALQQEHLDVIKQLTSTQEALQAKGQSLDDLHTRYDELQARLEELQREADSREDAIHFLQNEKIVLEVALQSAKSDKEELDRGARRLEEDTEETSGLLEQLRQDLAVKSNQVEHLQQETATLRKQMQKVKEQFVQQKVMVEAYRRDATSKDQLINELKATKKRLDSEMKELRQELIKLQGEKKTVEVEHSRLQKDMSLVHQQMAELEGHLQSVQKERDEMEIHLQSLKFDKEQMIALTEANETLKKQIEELQQEAKKAITEQKQKMKRLGSDLTSAQKEMKTKHKAYENAVSILSRRLQEALASKEATDAELNQLRAQSTGGSSDPVLHEKIRALEVELQNVGQSKILLEKELQEVITMTSQELEESREKVLELEDELQESRGFRRKIKRLEESNKKLALELEHERGKLTGLGQSNAALREHNSILETALAKREADLVQLNLQVQAVLQRKEEEDRQMKQLVQALQVSLEKEKMEVNSLKEQMAAARIEAGHNRRHFKAATLELSEVKKELQAKEHLVQTLQAEVDELQIQDGKHSQEIAQFQTELAEARTQLQLLQKKLDEQMSQQPTGSQEMEDLKWELDQKEREIQSLKQQLDLTEQQGKKELEGTQQTLQTIKSELEMVQEDLSETQKDKFMLQAKVSELKNNMKTLLQQNQQLKLDLRRGAAKKKEPKGESNSSSPATPIKIPDCPVPASLLEELLRPPPAVSKEPLKNLNNCLQQLKQEMDSLQRQMEEHTITVHESLSSWAQVEAAPAEHAHPRGDTKLHNQNSVPRDGLGQ
B3: Fbl, mouse (protein, UniProt P35550 1-327)
chain: MKPGFSPRGGGFGGRGGFGDRGGRGGGRGGRGGFGGGRGGFGGGGRGRGGGGGGFRGRGGGGGRGGGFQSGGNRGRGGGRGGKRGNQSGKNVMVEPHRHEGVFICRGKEDALVTKNLVPGESVYGEKRVSISEGDDKIEYRAWNPFRSKLAAAILGGVDQIHIKPGAKVLYLGAASGTTVSHVSDIVGPDGLVYAVEFSHRSGRDLINLAKKRTNIIPVIEDARHPHKYRMLIAMVDVIFADVAQPDQTRIVALNAHTFLRNGGHFVISIKANCIDSTASAEAVFASEVKKMQQENMKPQEQLTLEPYERDHAVVVGVYRPPPKVKN
B4: centrosomal protein Cep63, mouse (protein, UniProt Q3UPP8 1-700)
chain: MEALLEGIQNRGHSGGFLTSCEAELQELMKQIDIMVAHKKSEWEGQTHALETCLDIRDRELKALRSQLDMKHKEVGILHQQIEEHEKTKQEMAMEYKEELLKLQEELSRLKRSYEKLQKKQLREFRGNTKSFREDRSEIERLTGKIEEFRQKSLDWEKQRLIYQQQVSSLEAQRKALAEQSEIIQAQLANRKQKLESVELSSQSEIQHLNSKLERAKDTICANELEIERLNIRVNDLMGTNMTILQDHRQKEEKLRESEKLLEALQEEQKELKASLQSQETFILEAKMQEKLQTTLKAVGTQQSVERPLEDCQKERKYSSPGQGVLDNVLSQLDFSHSSEELLQAEVTRLEGSLESVSATCKQLSQELMEKYEELKRMEGHNNEYRTEIKKLKEQILQADQTYSSALEGMKMEISQLTRELHQRDITIASAKCSSSDMEKQLKAEMQKAEEKAVEHKEILSQLESLKLENHRLSETVMKLELGLHEAKEISLADLQENYIEALNKLVSENQQLQKDLMSTKSELEHATNMCKKKDGEIFNPAHSRAAGFKNAELKPIHGQHRHDGIKTEQYKTGHHSPRGQTLDSIDPVARGPSPLSSHISPGSSTVSLPSNFLFEAHSLPSVLDINDVNFSDSLSDCMNDQEEFVSSGSLPTSPLGSIATRFLEEEELRSHHILERLDAHIEELKRESEKTVRQFTALV

One test has as its target Hypoxia-inducible factor 1-alpha (HIF-1α), human (human (endogenous in UT7/TPO)) (UniProt Q16665). Nature of the test: affinity purification with mass spectrometry.
For the molecule B1, the binding result is “binds”.

In the next test the target is Hypoxia-inducible factor 1-alpha (HIF-1α), mouse (mouse (endogenous in BaF3)) (UniProt Q61221). Nature of the test: affinity purification with mass spectrometry.
Consider B2, for which the binding entry is listed as “binds”. As to B3, the binding result is given as “binds”.

On to B4, for which the binding entry is listed as “binds”.

Another test has the same target. Nature of the test: affinity purification with mass spectrometry. The source holds these as a separate data set.
Take “Epg5, mouse (from UniProt Q80TA9 1-2572)”: the binding entry is reported as “binds”.

Turning to “KHDRBS1/Sam68, mouse (from UniProt Q60749 1-443)”, the binding entry was “binds”. Same read-out and setting: the entry for SIK2, mouse (from UniProt Q8CFH6 1-931) is “binds”. On to “TDP-43, mouse (from UniProt Q921F2 1-414)”, for which the binding entry is “binds”.

With “Znf638, mouse (from UniProt Q61464 1-1960)”, the binding result is “binds”.
